PubChem BioAssay AID493246, Drosophila RNAi Screening Center | 2011
Assay: 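Identify essential fly genes by loss of cell viability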 (primary screen). System: Drosophila Kc and S2R+ cells. Reagents: long dsRNA against Drosophila genes. Detection: 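Raw, unnormalised count of remaining cells in each well; per-plate z-scores of cell number underlie the calls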. Direction: Kc cell number and S2R+ cell number: higher = more cells remaining. Call rule: 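Active when the per-plate z-score of cell number is 3 or more in the direction of fewer cells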.
The deposit covers about 21,000 reagents; below is a random part of those with a known target gene and a result. Over the whole deposit, 429 (2%) were called active. 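Values are raw and not normalised between plates; calls rest on per-plate z-scores that were not deposited.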 Entries without a mark were called inactive. The record does not give: the amount of reagent, the time to read-out.

What is on record for pps [DRSC16057]?
Kc cell number, rep 1: 1.49e6; Kc cell number, rep 2: 1.61e6; S2R+ cell number, rep 1: 1.23e6; S2R+ cell number, rep 2: 1.43e6

With slmb [DRSC17056], how do the results read?
Kc cell number, rep 1: 1.57e6; Kc cell number, rep 2: 1.65e6; S2R+ cell number, rep 1: 1.06e6; S2R+ cell number, rep 2: 1.16e6

How did the screen score CG12483 [DRSC08278]?
Kc cell number, rep 1: 1.31e6; Kc cell number, rep 2: 1.38e6; S2R+ cell number, rep 1: 9.91e5; S2R+ cell number, rep 2: 1.37e6

With ERp60 [DRSC07309], what was measured?
Kc cell number, rep 1: 1.37e6; Kc cell number, rep 2: 1.53e6; S2R+ cell number, rep 1: 2.42e5; S2R+ cell number, rep 2: 9.92e5

With Lcp65Ae [DRSC11212], what does the deposit list?
Kc cell number, rep 1: 1.50e6; Kc cell number, rep 2: 1.68e6; S2R+ cell number, rep 1: 1.28e6; S2R+ cell number, rep 2: 1.24e6

2 entries already listed, sorted by “Kc cell number, rep 1”, ascending.
CG12483 [DRSC08278] | Kc cell number, rep 1: 1.31e6; Kc cell number, rep 2: 1.38e6; S2R+ cell number, rep 1: 9.91e5; S2R+ cell number, rep 2: 1.37e6
ERp60 [DRSC07309] | Kc cell number, rep 1: 1.37e6; Kc cell number, rep 2: 1.53e6; S2R+ cell number, rep 1: 2.42e5; S2R+ cell number, rep 2: 9.92e5

Further entries:
With CG12084 [DRSC08247], what was measured?
Kc cell number, rep 1: 1.43e6; Kc cell number, rep 2: 1.53e6; S2R+ cell number, rep 1: 1.15e6; S2R+ cell number, rep 2: 1.03e6

What is on record for Pgm2b [DRSC05978]?
Kc cell number, rep 1: 1.52e6; Kc cell number, rep 2: 1.60e6; S2R+ cell number, rep 1: 1.23e6; S2R+ cell number, rep 2: 1.35e6

What is on record for CG13577 [DRSC04213]?
Kc cell number, rep 1: 1.41e6; Kc cell number, rep 2: 1.50e6; S2R+ cell number, rep 1: 1.26e6; S2R+ cell number, rep 2: 1.30e6

How did the screen score phtm [DRSC20237]?
Kc cell number, rep 1: 1.51e6; Kc cell number, rep 2: 1.56e6; S2R+ cell number, rep 1: 9.06e5; S2R+ cell number, rep 2: 1.02e6

How did the screen score Set1 [DRSC20930]?
Kc cell number, rep 1: 1.58e6; Kc cell number, rep 2: 1.58e6; S2R+ cell number, rep 1: 1.01e6; S2R+ cell number, rep 2: 1.14e6

How did the screen score Set1 [DRSC20931]?
Kc cell number, rep 1: 1.52e6; Kc cell number, rep 2: 1.61e6; S2R+ cell number, rep 1: 9.38e5; S2R+ cell number, rep 2: 1.09e6

For CG5087 [DRSC10479], how do the results read?
Kc cell number, rep 1: 1.30e6; Kc cell number, rep 2: 1.29e6; S2R+ cell number, rep 1: 1.29e6; S2R+ cell number, rep 2: 1.29e6

With Tm2 [DRSC16887], what does the deposit list?
Kc cell number, rep 1: 1.29e6; Kc cell number, rep 2: 1.51e6; S2R+ cell number, rep 1: 1.09e6; S2R+ cell number, rep 2: 1.18e6

How did the screen score CG5910 [DRSC11786]?
Kc cell number, rep 1: 1.71e6; Kc cell number, rep 2: 1.79e6; S2R+ cell number, rep 1: 1.39e6; S2R+ cell number, rep 2: 1.45e6
